This is an account of results in paper PMC8849481.

Chains of the proteins cited; added tags and fusions are not shown.
UniProt Q13283: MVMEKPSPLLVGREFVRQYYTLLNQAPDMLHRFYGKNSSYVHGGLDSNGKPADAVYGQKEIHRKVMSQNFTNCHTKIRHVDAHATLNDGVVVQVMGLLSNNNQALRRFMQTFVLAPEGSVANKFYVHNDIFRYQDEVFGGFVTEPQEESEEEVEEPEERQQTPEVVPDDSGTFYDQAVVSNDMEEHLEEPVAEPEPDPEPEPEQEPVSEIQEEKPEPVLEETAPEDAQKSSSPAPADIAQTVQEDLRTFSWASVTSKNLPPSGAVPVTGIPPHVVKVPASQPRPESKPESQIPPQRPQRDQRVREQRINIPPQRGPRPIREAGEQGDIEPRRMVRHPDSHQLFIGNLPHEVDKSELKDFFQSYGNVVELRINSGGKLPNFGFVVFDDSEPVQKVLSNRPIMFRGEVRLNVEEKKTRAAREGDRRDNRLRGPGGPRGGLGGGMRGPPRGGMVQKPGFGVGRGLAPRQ

Results are given in words; binding and its absence hold for the method and conditions named. Binding seen in cells or lysates may run through a third protein. Some results given as binding are weak or reduced against the parent protein; the word gives no strength. Tags and fused reporters may be left off the sequences shown.

The target in experiment [1] is T1, myxovirus resistance protein B (MxB), Flag-tagged (human) (UniProt P20592).
T1 sequence: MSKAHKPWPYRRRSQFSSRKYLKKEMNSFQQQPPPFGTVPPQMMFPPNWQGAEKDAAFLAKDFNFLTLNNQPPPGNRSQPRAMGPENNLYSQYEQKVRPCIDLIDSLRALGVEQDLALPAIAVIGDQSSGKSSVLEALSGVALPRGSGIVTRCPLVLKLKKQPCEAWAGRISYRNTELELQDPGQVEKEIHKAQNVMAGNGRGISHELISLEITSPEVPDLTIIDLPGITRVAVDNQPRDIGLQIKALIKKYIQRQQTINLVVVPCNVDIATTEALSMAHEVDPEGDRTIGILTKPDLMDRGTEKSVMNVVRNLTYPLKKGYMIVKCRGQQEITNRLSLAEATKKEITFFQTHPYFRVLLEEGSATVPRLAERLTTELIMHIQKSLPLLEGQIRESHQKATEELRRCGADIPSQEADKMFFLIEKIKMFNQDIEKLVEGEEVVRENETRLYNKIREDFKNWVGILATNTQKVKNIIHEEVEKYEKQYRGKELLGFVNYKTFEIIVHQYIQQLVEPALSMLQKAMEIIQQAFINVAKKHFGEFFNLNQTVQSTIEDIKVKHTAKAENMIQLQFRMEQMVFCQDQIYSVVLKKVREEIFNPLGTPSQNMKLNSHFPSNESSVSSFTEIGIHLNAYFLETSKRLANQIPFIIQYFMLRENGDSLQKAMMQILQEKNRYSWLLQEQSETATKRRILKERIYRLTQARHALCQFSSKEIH
As to the kind of experiment: co-IP; anti-Flag M2 affinity gel with 1 mg lysate of transfected HEK293T cells in RIPA buffer (0.1% SDS, 1% Triton X-100, 1% sodium deoxycholate, 150 mM NaCl, 10 mM Tris pH 7.5, 1 mM EDTA), overnight at 4°C, three washes, Western blot; one panel (Fig 2G) with or without RNase A. Background: A western blot detects proteins with antibodies after separation by electrophoresis.

A further experiment addresses T2, MxA, Flag-tagged (human) (UniProt P20591).
T2 sequence: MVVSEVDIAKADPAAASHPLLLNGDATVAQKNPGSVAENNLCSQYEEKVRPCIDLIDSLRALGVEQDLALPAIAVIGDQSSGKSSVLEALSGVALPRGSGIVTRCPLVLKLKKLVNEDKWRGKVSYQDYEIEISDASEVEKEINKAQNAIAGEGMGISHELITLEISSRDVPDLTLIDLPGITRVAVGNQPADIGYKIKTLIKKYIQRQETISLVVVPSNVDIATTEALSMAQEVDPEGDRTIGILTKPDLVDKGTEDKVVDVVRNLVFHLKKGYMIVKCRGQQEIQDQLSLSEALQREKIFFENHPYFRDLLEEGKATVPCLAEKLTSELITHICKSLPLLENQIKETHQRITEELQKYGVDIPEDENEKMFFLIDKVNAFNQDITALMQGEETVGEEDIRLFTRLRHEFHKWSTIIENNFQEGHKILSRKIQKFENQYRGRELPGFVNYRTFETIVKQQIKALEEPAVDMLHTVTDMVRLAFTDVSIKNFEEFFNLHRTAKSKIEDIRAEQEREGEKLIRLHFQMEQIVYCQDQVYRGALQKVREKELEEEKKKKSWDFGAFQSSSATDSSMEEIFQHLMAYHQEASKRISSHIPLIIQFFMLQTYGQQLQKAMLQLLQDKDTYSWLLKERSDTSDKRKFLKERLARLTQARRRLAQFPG
Described as above.

For G3BP1 (from UniProt Q13283 1-466), the binding result was “binds” in experiment [1] and “no binding” with MxA, Flag-tagged (human).

B1: TIA1 (protein, UniProt P31483 1-386)
chain: MEDEMPKTLYVGNLSRDVTEALILQLFSQIGPCKNCKMIMDTAGNDPYCFVEFHEHRHAAAALAAMNGRKIMGKEVKVNWATTPSSQKKDTSSSTVVSTQRSQDHFHVFVGDLSPEITTEDIKAAFAPFGRISDARVVKDMATGKSKGYGFVSFFNKWDAENAIQQMGGQWLGGRQIRTNWATRKPPAPKSTYESNTKQLSYDEVVNQSSPSNCTVYCGGVTSGLTEQLMRQTFSPFGQIMEIRVFPDKGYSFVRFNSHESAAHAIVSVNGTTIEGHVVKCYWGKETLDMINPVQQQNQIGYPQPYGQWGQWYGNAQQIGQYMPNGWQVPAYGMYGQAWNQQGFNQTQSSAPWMGPNYGVQPPQGQNGSMLPNQPSGYRVAGYETQ
Consider B1, for which the binding entry was “binds” in experiment [1] and “no binding” with MxA, Flag-tagged (human).
